Drawing on article PMC10666023, this text covers binding for three substances.

Protein sequences, listed by entry. Tags and fused reporters are not part of them. Lines headed by an entry give the natural chain unless they say otherwise; changes in a name come on top. Chains listed by the source or under a name are the forms on record and can include a tag or linker.
UniProt Q6NZQ4: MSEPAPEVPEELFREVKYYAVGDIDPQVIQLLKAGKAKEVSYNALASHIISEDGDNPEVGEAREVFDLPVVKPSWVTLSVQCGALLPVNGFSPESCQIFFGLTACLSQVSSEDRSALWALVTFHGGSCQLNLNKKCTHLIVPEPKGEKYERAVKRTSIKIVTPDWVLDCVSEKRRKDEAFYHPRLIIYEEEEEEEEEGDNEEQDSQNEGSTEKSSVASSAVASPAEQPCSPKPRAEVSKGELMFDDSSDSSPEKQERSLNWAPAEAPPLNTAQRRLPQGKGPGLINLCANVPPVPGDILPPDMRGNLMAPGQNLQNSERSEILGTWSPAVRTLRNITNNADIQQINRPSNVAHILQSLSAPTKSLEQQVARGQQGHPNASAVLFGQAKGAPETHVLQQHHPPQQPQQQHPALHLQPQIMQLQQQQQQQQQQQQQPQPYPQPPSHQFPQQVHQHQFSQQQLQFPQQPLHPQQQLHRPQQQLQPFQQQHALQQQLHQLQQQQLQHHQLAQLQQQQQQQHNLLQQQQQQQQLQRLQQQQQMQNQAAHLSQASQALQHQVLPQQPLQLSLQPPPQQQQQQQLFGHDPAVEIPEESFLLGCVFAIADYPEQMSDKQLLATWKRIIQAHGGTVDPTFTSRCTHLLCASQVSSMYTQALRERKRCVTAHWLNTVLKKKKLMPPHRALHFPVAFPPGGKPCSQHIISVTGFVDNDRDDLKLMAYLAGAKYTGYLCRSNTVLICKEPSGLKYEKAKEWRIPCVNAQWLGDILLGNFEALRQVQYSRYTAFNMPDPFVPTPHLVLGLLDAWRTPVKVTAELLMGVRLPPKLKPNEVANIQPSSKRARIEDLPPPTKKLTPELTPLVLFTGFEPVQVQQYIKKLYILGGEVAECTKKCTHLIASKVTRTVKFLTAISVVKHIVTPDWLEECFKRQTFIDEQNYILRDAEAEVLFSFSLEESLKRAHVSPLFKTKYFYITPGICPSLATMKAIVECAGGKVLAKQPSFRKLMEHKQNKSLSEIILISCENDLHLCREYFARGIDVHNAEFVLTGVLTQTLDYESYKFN
UniProt A0A140LI88: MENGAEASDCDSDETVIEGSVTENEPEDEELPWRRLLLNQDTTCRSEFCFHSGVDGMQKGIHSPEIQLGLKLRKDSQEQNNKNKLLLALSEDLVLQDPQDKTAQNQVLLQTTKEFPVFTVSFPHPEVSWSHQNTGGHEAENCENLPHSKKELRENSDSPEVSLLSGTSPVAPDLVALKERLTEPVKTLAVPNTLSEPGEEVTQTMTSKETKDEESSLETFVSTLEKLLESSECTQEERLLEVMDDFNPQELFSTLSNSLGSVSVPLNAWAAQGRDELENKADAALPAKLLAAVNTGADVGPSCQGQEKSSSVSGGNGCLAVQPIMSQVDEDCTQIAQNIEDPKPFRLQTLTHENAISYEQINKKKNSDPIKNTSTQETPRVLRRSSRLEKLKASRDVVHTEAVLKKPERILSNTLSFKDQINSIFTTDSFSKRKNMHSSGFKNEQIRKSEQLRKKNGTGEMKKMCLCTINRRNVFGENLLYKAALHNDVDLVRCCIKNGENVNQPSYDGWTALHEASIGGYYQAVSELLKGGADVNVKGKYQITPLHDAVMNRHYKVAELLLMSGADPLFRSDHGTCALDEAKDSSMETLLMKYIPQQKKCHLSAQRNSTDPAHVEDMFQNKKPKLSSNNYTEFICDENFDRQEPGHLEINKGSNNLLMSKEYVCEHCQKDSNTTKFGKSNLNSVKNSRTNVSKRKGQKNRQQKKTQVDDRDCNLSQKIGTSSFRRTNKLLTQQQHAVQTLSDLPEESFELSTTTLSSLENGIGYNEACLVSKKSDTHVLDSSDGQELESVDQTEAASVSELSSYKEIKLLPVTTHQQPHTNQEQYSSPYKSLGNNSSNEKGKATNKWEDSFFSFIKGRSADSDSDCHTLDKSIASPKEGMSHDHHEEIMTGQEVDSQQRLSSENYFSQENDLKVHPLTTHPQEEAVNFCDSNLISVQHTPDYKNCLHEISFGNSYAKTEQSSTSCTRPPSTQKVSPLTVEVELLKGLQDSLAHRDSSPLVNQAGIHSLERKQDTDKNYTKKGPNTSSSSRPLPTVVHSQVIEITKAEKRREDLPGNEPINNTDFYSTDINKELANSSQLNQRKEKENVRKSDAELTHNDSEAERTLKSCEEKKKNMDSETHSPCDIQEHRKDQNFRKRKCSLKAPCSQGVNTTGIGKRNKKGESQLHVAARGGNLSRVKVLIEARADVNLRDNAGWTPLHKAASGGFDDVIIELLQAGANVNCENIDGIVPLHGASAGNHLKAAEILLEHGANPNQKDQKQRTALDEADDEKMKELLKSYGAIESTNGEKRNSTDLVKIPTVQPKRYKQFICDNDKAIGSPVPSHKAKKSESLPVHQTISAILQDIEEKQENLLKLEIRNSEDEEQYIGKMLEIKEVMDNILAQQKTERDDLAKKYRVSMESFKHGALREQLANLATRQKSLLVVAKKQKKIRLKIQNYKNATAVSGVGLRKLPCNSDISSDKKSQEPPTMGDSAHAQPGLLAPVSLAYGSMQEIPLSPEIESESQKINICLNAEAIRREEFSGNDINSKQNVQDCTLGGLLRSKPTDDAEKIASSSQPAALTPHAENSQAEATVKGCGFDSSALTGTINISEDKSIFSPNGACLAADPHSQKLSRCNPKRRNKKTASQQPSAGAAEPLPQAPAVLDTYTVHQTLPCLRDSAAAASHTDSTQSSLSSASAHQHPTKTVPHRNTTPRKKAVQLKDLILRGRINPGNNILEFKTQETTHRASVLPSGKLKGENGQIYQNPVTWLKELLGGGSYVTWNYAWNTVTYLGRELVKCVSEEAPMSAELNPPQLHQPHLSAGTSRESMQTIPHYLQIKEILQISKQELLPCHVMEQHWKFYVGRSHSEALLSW
ANKRD31-EA, full-length ANKRD31 with alanine substituted for Glu-1831 (A0A140LI88, form named): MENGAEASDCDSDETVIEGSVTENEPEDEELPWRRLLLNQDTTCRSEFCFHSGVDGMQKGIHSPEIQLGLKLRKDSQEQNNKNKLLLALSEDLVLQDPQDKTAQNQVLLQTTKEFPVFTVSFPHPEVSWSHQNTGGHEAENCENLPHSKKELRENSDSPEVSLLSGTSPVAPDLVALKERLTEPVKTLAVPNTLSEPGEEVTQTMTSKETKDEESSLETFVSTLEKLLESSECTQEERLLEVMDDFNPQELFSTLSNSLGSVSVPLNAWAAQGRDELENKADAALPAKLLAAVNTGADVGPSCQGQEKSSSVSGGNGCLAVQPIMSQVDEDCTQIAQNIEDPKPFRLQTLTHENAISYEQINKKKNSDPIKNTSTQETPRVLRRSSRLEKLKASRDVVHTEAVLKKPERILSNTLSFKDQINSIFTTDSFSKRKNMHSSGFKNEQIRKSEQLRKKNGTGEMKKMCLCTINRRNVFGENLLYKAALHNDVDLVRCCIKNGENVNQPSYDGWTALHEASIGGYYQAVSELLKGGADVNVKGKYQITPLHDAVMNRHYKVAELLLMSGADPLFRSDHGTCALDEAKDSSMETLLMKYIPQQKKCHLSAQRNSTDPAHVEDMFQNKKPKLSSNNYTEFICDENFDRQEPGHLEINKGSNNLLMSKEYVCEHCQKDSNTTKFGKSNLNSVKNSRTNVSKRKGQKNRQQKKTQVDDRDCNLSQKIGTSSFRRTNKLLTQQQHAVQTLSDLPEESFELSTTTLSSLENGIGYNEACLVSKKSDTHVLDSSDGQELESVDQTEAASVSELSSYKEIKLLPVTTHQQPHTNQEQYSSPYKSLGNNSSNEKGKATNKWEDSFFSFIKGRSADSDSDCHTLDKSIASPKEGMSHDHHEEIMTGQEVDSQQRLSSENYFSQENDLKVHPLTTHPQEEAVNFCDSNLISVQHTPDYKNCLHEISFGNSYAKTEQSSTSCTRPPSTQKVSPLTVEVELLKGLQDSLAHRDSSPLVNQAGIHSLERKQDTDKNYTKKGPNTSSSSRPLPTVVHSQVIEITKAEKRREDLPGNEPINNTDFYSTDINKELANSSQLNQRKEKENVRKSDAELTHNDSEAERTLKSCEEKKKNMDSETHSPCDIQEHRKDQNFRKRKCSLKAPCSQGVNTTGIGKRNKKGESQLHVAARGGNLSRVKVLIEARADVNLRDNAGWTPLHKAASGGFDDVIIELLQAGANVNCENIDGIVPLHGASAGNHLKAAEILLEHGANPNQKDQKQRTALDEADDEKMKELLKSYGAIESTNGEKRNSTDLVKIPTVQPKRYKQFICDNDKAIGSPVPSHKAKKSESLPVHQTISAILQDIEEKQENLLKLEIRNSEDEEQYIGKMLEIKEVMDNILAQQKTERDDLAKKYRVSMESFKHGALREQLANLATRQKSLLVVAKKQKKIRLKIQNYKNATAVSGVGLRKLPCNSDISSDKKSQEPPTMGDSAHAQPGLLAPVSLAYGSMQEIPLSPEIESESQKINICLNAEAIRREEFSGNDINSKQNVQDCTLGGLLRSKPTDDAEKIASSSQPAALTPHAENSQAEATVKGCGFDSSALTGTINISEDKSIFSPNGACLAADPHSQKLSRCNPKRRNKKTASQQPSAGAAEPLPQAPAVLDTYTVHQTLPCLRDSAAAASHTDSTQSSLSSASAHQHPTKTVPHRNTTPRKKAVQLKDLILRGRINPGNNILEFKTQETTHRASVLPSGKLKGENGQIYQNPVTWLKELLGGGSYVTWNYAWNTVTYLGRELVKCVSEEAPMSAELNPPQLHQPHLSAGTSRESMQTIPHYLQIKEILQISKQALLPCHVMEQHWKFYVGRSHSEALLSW

In one experiment the target is T1, ZMYM3 (UniProt Q9JLM4).
T1 sequence: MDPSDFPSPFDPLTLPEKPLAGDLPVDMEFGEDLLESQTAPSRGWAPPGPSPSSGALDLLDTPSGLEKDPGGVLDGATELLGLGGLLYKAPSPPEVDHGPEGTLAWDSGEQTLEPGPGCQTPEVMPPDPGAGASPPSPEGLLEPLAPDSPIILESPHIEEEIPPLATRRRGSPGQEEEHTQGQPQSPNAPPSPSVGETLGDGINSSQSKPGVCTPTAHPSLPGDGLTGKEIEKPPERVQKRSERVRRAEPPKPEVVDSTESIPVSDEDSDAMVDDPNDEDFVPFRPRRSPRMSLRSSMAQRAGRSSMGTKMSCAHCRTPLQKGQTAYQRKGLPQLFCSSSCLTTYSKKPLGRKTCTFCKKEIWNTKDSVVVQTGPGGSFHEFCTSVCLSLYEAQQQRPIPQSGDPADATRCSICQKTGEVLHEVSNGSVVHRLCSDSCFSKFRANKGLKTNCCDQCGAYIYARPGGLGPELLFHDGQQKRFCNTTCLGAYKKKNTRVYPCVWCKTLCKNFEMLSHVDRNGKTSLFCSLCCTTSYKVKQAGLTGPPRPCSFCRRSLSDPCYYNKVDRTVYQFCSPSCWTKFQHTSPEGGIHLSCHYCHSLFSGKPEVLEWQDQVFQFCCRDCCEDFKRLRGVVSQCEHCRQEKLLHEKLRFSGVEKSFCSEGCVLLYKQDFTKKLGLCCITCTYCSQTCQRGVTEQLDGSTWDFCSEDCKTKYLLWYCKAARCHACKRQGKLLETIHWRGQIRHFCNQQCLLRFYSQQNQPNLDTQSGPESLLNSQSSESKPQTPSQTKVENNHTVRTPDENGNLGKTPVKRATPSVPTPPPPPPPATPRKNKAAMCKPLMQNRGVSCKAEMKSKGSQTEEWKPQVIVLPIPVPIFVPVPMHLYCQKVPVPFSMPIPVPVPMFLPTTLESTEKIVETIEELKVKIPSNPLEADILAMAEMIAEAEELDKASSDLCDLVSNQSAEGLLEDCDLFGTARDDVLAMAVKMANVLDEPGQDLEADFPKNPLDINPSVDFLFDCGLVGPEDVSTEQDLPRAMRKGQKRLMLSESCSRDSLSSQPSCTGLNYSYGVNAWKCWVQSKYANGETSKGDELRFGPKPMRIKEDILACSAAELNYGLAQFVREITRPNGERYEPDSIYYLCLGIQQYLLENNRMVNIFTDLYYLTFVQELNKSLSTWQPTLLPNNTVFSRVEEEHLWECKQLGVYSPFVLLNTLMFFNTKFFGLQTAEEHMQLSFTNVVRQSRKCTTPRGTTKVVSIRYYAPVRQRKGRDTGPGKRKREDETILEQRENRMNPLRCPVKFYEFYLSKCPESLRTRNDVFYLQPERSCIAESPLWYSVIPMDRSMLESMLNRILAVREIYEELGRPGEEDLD
The experiment can be described thus: two-hybrid; yeast two-hybrid of full-length ANKRD31 (wild type, EA, ΔC) as Gal4 AD and BD fusions with full-length or parts of REC114, MEI1, PTIP, ZMYM3; selection by amino acid dropouts and aureobasidin at moderate (+) and high (++) stringency.

The next experiment deals with T2, MEI1 (UniProt Q9D4I2).
T2 sequence: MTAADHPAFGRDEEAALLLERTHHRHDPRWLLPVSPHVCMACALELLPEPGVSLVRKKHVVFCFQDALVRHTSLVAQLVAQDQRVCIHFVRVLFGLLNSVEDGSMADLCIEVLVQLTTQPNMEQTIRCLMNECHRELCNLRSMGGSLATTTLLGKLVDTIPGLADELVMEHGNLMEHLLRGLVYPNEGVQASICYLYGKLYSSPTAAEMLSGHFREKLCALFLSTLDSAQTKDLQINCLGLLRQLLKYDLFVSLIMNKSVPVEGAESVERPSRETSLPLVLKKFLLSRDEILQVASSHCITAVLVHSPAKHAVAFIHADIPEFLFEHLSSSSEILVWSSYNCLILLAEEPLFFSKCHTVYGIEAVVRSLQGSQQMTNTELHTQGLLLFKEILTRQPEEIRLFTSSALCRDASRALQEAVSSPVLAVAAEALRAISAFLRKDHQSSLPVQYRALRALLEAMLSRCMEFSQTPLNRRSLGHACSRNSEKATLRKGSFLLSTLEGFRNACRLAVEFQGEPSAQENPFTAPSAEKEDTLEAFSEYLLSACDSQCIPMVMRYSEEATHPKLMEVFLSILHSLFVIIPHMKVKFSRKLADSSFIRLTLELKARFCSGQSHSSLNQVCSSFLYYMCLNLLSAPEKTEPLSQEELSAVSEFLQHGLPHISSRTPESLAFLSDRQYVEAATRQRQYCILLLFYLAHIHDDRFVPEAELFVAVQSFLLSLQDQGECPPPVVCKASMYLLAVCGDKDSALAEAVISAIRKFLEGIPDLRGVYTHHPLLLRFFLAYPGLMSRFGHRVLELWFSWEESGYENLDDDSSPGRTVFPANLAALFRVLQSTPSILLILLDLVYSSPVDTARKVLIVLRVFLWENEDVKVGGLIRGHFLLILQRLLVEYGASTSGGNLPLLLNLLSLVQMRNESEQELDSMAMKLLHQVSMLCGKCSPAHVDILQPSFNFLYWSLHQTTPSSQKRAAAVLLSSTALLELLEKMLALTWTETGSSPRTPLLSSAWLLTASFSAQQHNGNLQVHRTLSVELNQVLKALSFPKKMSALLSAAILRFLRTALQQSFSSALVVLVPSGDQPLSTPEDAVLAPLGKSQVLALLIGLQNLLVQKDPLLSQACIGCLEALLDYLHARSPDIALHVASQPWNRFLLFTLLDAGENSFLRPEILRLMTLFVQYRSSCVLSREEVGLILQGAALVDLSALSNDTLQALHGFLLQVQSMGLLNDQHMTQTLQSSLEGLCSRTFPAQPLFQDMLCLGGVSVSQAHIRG
The description is as above.

A further experiment deals with PTIP (UniProt Q6NZQ4). Described as above.
A further experiment addresses T3, REC114 1–145 (mouse) (UniProt Q9CWH4).
T3 sequence: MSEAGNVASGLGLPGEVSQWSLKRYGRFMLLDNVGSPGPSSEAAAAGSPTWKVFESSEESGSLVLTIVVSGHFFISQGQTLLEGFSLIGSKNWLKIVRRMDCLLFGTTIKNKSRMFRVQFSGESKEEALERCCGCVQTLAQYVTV
Nature of the experiment: two-hybrid; yeast two-hybrid of ANKRD31C (wild type or Glu-1831 to alanine) with REC114 1–145 (SI Appendix, Fig. S1B); expression of the fragments checked (Fig. S1C).

These are yes or no findings as the source states them, for the method shown. Some entries that bind do so weakly or less than the wild type.

As to “ANKRD31 (Ankyrin Repeat Domain Containing 31), full-length wild type (from UniProt A0A140LI88 1-1857)”, the binding result with ZMYM3, with MEI1 and with PTIP was “binds” in each case.
Regarding “ANKRD31-EA, full-length ANKRD31 with alanine substituted for Glu-1831 (from UniProt A0A140LI88 1-1857)”, the binding entry in the experiment with ZMYM3, with MEI1 and with PTIP was “binds” throughout.
Regarding “ANKRD31C, ANKRD31 residues 1808–1857 (from UniProt A0A140LI88 1808-1857) (domain or fragment)”, the binding result in the experiment with REC114 1–145 (mouse) is on record as “binds”.
